Laboratory results as given in patent US20210332360.
For some assays here: No signal at the amounts used counts as a negative. For some assays here: For at least one entry, the source does not settle the construct or the ends of the probe. For some assays here: Where a protein sequence is shown, tags need not be part of it.

The chains behind the UniProt entries cited, without tags or fusion partners. Residues count along the entry.
UniProt P11226, 21-248: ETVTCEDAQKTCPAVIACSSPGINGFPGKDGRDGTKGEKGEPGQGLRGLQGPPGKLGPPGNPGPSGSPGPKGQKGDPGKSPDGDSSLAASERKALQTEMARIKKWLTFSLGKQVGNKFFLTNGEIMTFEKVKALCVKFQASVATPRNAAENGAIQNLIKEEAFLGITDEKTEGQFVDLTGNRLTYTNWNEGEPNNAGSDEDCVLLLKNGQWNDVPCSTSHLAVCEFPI

Assays:
[1] = molecular target: Mannose-binding lectin (MBL) (Homo sapiens) (UniProt P11226); test: flow cytometry; settings: after the 5' primer region all dT replaced by 4 (alpha-D-mannose-triazole-modified C8-alkyne-dU); essentially no binding from 0.1 to 100 nM; purified recombinant protein; protein details: ACROBiosystems, fluorescent label; label: particle-displayed, or 5'-biotinTEG in solution; single-stranded DNA
[2] = molecular target: T1, DC-SIGN (DC-SIGNR/CD299) (Homo sapiens) (UniProt Q9H2X3); test: MST; settings: after the 5' primer region all dT replaced by 4 (alpha-D-mannose-triazole-modified C8-alkyne-dU); average of 20.4 and 22.7 nM; 25 C; D1 free in solution, 1 nM labeled DC-SIGNR; purified recombinant protein; label: particle-displayed, or 5'-biotinTEG in solution; single-stranded DNA
T1 sequence (looked up, limits assumed): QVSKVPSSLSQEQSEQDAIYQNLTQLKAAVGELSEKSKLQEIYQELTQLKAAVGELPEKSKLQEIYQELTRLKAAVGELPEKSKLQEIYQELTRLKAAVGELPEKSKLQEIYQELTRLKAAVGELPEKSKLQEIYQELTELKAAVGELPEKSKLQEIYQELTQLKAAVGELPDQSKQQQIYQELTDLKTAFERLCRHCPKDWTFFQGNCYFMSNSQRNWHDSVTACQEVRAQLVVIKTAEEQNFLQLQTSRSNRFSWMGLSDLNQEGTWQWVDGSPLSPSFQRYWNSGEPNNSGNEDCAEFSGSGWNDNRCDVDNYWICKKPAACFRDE

With “GATCCCAGTCCGAAGTAATCCAAGGGTAATTGGGAAATAAGGATGGGGTAATATGCAACCCTTGTGCAAACGGCTATAGG [D1]” the binding result [1] was “no binding” and the Kd [2] was 21.5 nM.
